Results deposited as PubChem BioAssay AID1259308 (NCATS, 2017)

- Screen: 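Candidate targets for better recombinant protein yield in mammalian cells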 (primary screen)
- System: human HEK293 embryonic kidney cells stably expressing firefly luciferase (HEK-CMV-Luc2-Hygro)
- Knock-down reagent: single siRNA against human genes, 0.8 pmol siRNA per well
- Timing: 72 h
- Read-out: 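Luciferase light (ONE-Glo) measured on one replicate plate set and viability (CellTiter-Glo) on the other, scaled to a negative control siRNA, with robust z-scores and luciferase per cell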
- Scale: total luciferase, z-score and total luciferase, % of control: higher = more reporter protein produced; luciferase per cell, z-score: higher = more reporter output per viable cell
- Active means: 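An siRNA counts as active if its total luciferase robust z-score exceeds 3; genes with two or more such siRNAs out of three were retested with fresh siRNAs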
- Meaning of the calls: active = raised luciferase; inactive = no rise
In all, the deposit lists about 59,000 reagents; below is an unselected part. Of all reagents, about 1,510 (2.6%) are marked active. 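Calls use total luciferase alone and ignore viability, so some active siRNAs may act by altering cell number.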 Not all columns of the deposit are shown. No sequences are given here.

| target | PubChem SID | total luciferase, z-score | total luciferase, % of control | luciferase per cell, z-score | activity call |
| --- | --- | --- | --- | --- | --- |
| HMBOX1 | SID160749007 | 0.0793 | 83.5 | 0.589 | inactive |
| HMBOX1 | SID160749008 | 0.0931 | 83.7 | -0.0942 | inactive |
| HMBOX1 | SID160749009 | -0.0579 | 80.7 | -0.28 | inactive |
| PPT2 | SID160722068 | 4.54 | 172 | 2.91 | active |
| PPT2 | SID160722069 | -0.0783 | 80.3 | -0.153 | inactive |
| PPT2 | SID160722070 | 0.143 | 84.7 | -0.582 | inactive |
| PRIM1 | SID160714883 | -0.877 | 64.4 | -0.731 | inactive |
| PRIM1 | SID160714884 | -1.28 | 56.5 | -1.64 | inactive |
| PRIM1 | SID160714885 | -0.466 | 72.6 | -0.587 | inactive |
| RPL9P11 | SID160768698 | 0.621 | 94.2 | 0.136 | inactive |
| RPL9P11 | SID160768699 | -0.553 | 70.9 | -0.483 | inactive |
| RPL9P11 | SID160768701 | -0.309 | 75.7 | -0.743 | inactive |
| OR6C76 | SID160766487 | -0.172 | 78.5 | 0.0427 | inactive |
| OR6C76 | SID160766489 | -0.817 | 65.6 | -0.991 | inactive |
| OR6C76 | SID160766490 | -0.206 | 77.8 | -0.0809 | inactive |
| FLT3LG | SID160723766 | 0.156 | 85 | 1.02 | inactive |
| FLT3LG | SID160723767 | -0.127 | 79.4 | -0.462 | inactive |
| FLT3LG | SID160766641 | 0.298 | 87.8 | -0.0922 | inactive |
| LLGL1 | SID160776654 | 4.26 | 167 | 2.24 | active |
| LLGL1 | SID160776655 | -2.9 | 24.2 | -2.03 | inactive |
| LLGL1 | SID160776656 | -0.0884 | 80.1 | -0.559 | inactive |
| TAF15 | SID160719668 | 0.727 | 96.3 | 0.578 | inactive |
| TAF15 | SID160719669 | 0.238 | 86.6 | -0.0154 | inactive |
| TAF15 | SID160719670 | -0.0119 | 81.6 | -0.55 | inactive |
| RPS26P28 | SID160725599 | -3.44 | 13.6 | -4.73 | inactive |
| RPS26P28 | SID160768754 | 0.517 | 92.2 | 0.614 | inactive |
| RPS26P28 | SID160768755 | -2.81 | 26 | -1.66 | inactive |

A portion of the results above:
| target | PubChem SID | total luciferase, z-score | total luciferase, % of control | luciferase per cell, z-score | activity call |
| --- | --- | --- | --- | --- | --- |
| HMBOX1 | SID160749007 | 0.0793 | 83.5 | 0.589 | inactive |
| HMBOX1 | SID160749008 | 0.0931 | 83.7 | -0.0942 | inactive |
| HMBOX1 | SID160749009 | -0.0579 | 80.7 | -0.28 | inactive |
| PPT2 | SID160722068 | 4.54 | 172 | 2.91 | active |
| PPT2 | SID160722069 | -0.0783 | 80.3 | -0.153 | inactive |
| PPT2 | SID160722070 | 0.143 | 84.7 | -0.582 | inactive |
| PRIM1 | SID160714883 | -0.877 | 64.4 | -0.731 | inactive |
| PRIM1 | SID160714884 | -1.28 | 56.5 | -1.64 | inactive |

The listing continues.
| target | PubChem SID | total luciferase, z-score | total luciferase, % of control | luciferase per cell, z-score | activity call |
| --- | --- | --- | --- | --- | --- |
| COX19 | SID160753772 | 0.0575 | 83 | -0.0462 | inactive |
| COX19 | SID160753773 | 0.545 | 92.7 | 1.7 | inactive |
| COX19 | SID160753774 | 1.04 | 103 | 1.78 | inactive |
| GPRACR | SID160767331 | 0.906 | 99.9 | 1.88 | inactive |
| GPRACR | SID160767332 | -1.13 | 59.5 | -0.737 | inactive |
| GPRACR | SID160767333 | 0.0622 | 83.1 | -0.62 | inactive |
| MEPCE | SID160731554 | 0.903 | 99.9 | 0.949 | inactive |
| MEPCE | SID160744981 | 1 | 102 | 1.26 | inactive |
| MEPCE | SID160744982 | 1.41 | 110 | 1.96 | inactive |
| KRT10-AS1 | SID160758488 | 0.887 | 99.5 | 0.29 | inactive |
| KRT10-AS1 | SID160758489 | 2.19 | 125 | 2 | inactive |
| KRT10-AS1 | SID160758490 | -0.803 | 65.9 | 0.662 | inactive |
| MIIP | SID160733700 | -1.4 | 54 | -1.2 | inactive |
| MIIP | SID160747156 | 1.31 | 108 | 1.84 | inactive |
| MIIP | SID160747157 | 1.62 | 114 | 1.92 | inactive |
| MYO5A | SID160777708 | 0.769 | 97.2 | 1.02 | inactive |
| MYO5A | SID160777709 | 1.46 | 111 | 2.25 | inactive |
| MYO5A | SID160777710 | -0.411 | 73.7 | -0.298 | inactive |
| INPP5K | SID160731397 | 1.62 | 114 | 1.13 | inactive |
| INPP5K | SID160741330 | -1.45 | 53 | -0.257 | inactive |
| INPP5K | SID160741331 | -0.257 | 76.8 | 1.05 | inactive |
| UST | SID160725231 | -0.89 | 64.2 | -0.399 | inactive |
| UST | SID160725235 | 1.16 | 105 | 1.46 | inactive |
| UST | SID160725244 | 0.277 | 87.4 | -0.131 | inactive |
| EMC2 | SID160722824 | -0.943 | 63.1 | -1.24 | inactive |
| EMC2 | SID160722825 | 0.0254 | 82.4 | 0.07 | inactive |
| EMC2 | SID160722827 | -0.0018 | 81.9 | 0.0738 | inactive |
| SLC39A10 | SID160745771 | -0.823 | 65.5 | -0.185 | inactive |
| SLC39A10 | SID160745772 | 1.79 | 117 | 1.32 | inactive |
| SLC39A10 | SID160745773 | 0.127 | 84.4 | -0.0248 | inactive |
